Patent US20150133367A1
No constants are given. Whether binding was seen depends on the method and setting. Some entries that bind do so weakly or less than the wild type.

Protein sequences, listed by entry. Tags and fused reporters are not part of them. Residues count along the entry.
UniProt P25774, residues 115-331: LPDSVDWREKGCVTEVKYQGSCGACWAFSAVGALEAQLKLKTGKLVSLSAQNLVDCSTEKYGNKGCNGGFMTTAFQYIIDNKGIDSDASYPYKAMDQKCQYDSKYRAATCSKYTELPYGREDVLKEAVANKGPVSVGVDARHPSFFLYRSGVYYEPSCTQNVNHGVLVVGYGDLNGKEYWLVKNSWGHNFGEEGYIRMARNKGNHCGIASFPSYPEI
UniProt P07711, residues 114-333: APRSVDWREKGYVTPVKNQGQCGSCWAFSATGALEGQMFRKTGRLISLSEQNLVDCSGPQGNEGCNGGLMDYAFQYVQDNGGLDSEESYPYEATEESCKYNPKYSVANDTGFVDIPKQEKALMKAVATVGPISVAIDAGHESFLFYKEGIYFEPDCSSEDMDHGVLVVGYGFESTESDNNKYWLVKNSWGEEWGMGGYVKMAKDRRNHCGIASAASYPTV

T1: Cathepsin K (UniProt P43235)
T1 sequence (looked up): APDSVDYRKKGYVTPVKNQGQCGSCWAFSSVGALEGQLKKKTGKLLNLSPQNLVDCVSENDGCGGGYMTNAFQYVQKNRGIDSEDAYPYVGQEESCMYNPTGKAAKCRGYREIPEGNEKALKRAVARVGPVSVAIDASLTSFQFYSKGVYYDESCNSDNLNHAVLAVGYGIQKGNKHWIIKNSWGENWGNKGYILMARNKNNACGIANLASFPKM


Experiments:
Test in all cases: enzyme inhibition assay
Cathepsin S = Cathepsin S (UniProt P25774)
Cathepsin L = Cathepsin L (UniProt P07711)
Cathepsin K = biological target: T1, Cathepsin K

Row | Binder | binding (Cathepsin S) | binding (Cathepsin L) | binding (Cathepsin K)
1 | TSEEVCSLMCS (Cys6 and Cys10 (i,i+4) linked by alpha,alpha'-meta-xylylene) [… (SEQ ID NO:16)] | binds | binds | –
2 | WSEEVCSLMCS (Cys6 and Cys10 (i,i+4) linked by alpha,alpha'-meta-xylylene) [… (SEQ ID NO:17)] | binds | binds | –
3 | TWEEVCSLMCS (Cys6 and Cys10 (i,i+4) linked by alpha,alpha'-meta-xylylene) [… (SEQ ID NO:18)] | binds | binds | –
4 | TSEWVCSLMCS (Cys6 and Cys10 (i,i+4) linked by alpha,alpha'-meta-xylylene) [… (SEQ ID NO:20)] | binds | binds | –
5 | TSEEWCSLMCS (Cys6 and Cys10 (i,i+4) linked by alpha,alpha'-meta-xylylene) [… (SEQ ID NO:21)] | binds | binds | –
6 | TWEWVCSLMCS (Cys6 and Cys10 (i,i+4) linked by alpha,alpha'-meta-xylylene) [… (SEQ ID NO:23)] | binds | – | –
7 | WWEWVCSLMCS (Cys6 and Cys10 (i,i+4) linked by alpha,alpha'-meta-xylylene) [… (SEQ ID NO:25)] | binds | – | –
8 | SCESVCKPWGP (Cys2 and Cys6 (i,i+4) linked by alpha,alpha'-meta-xylylene) [… (SEQ ID NO:50)] | – | – | binds
